From paper PMC9066100
These are yes or no findings as the source states them, for the method shown. In cells and extracts the contact can be indirect. Some entries that bind do so weakly or less than the wild type.

Protein sequences, listed by entry. Tags and fused reporters are not part of them.
UniProt P21333: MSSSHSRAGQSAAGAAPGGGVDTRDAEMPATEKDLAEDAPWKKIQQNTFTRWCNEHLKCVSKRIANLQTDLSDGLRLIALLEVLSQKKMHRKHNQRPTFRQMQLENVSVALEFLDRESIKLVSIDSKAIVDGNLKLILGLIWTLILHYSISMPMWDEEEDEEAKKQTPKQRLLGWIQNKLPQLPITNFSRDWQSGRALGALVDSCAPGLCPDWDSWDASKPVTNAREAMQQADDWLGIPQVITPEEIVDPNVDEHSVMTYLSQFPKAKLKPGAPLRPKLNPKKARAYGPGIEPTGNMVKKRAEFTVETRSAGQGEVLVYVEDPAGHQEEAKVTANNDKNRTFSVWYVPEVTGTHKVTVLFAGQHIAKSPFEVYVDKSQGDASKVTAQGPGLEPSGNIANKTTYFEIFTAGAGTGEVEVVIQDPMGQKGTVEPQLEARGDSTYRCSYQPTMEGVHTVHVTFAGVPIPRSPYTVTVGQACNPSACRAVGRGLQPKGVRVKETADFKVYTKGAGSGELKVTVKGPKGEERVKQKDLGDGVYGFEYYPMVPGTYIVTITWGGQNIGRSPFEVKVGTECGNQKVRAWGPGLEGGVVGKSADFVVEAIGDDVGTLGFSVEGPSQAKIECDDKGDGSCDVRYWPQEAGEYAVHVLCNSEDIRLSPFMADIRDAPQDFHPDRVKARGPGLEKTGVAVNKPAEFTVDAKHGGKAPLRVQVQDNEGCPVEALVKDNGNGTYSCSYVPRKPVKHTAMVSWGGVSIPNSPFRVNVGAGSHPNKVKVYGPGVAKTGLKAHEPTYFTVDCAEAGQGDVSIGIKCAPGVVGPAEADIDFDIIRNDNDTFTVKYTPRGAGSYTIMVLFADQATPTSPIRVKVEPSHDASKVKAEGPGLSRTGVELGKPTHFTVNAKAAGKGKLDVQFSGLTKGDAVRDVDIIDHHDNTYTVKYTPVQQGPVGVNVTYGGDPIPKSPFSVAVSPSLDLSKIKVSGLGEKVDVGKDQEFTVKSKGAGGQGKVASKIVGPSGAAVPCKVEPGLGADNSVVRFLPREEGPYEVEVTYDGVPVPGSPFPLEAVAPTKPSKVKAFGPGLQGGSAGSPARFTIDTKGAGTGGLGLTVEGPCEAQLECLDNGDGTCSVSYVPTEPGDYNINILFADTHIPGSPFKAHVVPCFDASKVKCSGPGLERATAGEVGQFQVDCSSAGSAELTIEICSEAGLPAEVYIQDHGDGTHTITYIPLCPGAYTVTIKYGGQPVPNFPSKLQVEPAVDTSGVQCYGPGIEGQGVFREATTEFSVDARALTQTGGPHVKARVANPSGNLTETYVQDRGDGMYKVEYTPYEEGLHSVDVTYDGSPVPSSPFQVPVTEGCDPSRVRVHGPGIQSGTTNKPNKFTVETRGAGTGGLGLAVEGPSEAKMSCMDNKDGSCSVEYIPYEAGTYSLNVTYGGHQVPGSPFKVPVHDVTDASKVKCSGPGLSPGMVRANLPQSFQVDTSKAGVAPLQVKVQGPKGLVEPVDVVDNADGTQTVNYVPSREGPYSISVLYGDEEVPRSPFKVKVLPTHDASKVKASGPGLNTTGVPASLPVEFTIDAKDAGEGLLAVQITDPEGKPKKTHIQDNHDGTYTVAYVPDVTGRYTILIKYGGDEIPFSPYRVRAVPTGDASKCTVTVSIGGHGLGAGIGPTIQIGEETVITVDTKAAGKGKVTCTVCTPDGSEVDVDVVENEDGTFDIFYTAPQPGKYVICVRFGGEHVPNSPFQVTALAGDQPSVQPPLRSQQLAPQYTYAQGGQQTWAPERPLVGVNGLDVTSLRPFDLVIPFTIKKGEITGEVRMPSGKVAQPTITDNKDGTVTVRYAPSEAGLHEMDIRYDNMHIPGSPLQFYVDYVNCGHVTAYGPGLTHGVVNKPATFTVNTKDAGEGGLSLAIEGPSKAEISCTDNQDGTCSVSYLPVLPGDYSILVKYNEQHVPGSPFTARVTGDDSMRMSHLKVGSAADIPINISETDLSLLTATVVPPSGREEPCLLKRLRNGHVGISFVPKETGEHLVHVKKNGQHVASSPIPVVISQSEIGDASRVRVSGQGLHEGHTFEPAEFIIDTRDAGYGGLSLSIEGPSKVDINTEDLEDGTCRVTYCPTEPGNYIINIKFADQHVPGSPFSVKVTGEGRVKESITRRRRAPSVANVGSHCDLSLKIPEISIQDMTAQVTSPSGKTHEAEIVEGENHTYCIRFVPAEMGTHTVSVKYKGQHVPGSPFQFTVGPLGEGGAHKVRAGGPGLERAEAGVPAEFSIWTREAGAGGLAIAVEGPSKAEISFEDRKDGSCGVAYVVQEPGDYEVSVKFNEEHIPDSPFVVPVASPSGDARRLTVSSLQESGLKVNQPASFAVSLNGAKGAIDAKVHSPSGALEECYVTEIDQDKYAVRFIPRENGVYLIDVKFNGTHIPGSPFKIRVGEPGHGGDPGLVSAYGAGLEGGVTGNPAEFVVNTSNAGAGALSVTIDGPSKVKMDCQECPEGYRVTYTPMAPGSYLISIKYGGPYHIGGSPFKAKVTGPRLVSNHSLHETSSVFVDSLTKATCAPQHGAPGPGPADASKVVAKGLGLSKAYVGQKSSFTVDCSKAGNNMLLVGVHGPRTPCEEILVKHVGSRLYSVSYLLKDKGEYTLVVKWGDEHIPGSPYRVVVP
UniProt Q96DX7: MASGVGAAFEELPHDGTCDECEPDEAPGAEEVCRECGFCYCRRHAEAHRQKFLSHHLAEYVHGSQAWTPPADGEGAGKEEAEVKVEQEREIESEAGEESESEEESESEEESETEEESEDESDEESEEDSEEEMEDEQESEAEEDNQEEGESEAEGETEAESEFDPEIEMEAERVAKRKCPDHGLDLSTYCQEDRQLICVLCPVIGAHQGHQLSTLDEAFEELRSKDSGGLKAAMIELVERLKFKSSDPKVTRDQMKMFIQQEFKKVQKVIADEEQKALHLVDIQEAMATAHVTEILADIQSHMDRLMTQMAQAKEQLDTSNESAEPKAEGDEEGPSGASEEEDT

Key:
[1] = biological target: filamin A (FLNA) (human (endogenous in A549/DDP)) (UniProt P21333); test: co-IP; A549/DDP cells overexpressing flag-tagged TRIM44 lysed with IP lysis buffer; immunoprecipitated with Flag antibody or FLNA antibody, rabbit IgG as negative control; bound proteins examined by Western blotting
[2] = biological target: Flag-TRIM44 (Tripartite motif-containing 44) (human) (UniProt Q96DX7); test: as above

binding [1]	binding [2]	Substance
binds		Flag-TRIM44 (Tripartite motif-containing 44) (from UniProt Q96DX7 1-344)
	binds	filamin A (FLNA) (from UniProt P21333 1-2647)
